The results in this text go back to article PMC9618567.

The chains behind the UniProt entries cited, without tags or fusion partners. Residues count along the entry.
UniProt P08195, residues 102-630: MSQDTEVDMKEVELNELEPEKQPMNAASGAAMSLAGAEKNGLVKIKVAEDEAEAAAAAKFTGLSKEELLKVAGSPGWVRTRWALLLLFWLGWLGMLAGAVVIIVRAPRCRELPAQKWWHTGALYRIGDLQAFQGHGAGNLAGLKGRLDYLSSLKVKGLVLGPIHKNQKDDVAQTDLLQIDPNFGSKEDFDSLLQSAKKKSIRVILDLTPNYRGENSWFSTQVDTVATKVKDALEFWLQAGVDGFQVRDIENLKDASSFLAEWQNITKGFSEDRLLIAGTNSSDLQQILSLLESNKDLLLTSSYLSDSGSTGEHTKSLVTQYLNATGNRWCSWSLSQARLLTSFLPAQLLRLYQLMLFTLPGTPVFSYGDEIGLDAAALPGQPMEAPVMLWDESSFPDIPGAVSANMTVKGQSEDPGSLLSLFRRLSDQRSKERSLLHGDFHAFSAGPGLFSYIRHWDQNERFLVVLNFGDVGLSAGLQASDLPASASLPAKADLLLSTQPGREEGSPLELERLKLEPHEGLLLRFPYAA

Results are given in words; binding and its absence hold for the method and conditions named. Some binding calls cover weakened binding; strength is not graded here.

For this assay, the target named is human 4F2hc (SLC3A2; CD98hc) (human) (UniProt P08195). The assay is described as follows: cryo-EM structure; SEC peak fraction of the 4F2hc-LAT2::D11vs complex in GDN, ~3 mg/ml; single-particle cryo-EM, 3.2 Å; both purified.

B1: human LAT2 (SLC7A8) (protein, UniProt Q9UHI5-1 1-535)
chain: MEEGARHRNNTEKKHPGGGESDASPEAGSGGGGVALKKEIGLVSACGIIVGNIIGSGIFVSPKGVLENAGSVGLALIVWIVTGFITVVGALCYAELGVTIPKSGGDYSYVKDIFGGLAGFLRLWIAVLVIYPTNQAVIALTFSNYVLQPLFPTCFPPESGLRLLAAICLLLLTWVNCSSVRWATRVQDIFTAGKLLALALIIIMGIVQICKGEYFWLEPKNAFENFQEPDIGLVALAFLQGSFAYGGWNFLNYVTEELVDPYKNLPRAIFISIPLVTFVYVFANVAYVTAMSPQELLASNAVAVTFGEKLLGVMAWIMPISVALSTFGGVNGSLFTSSRLFFAGAREGHLPSVLAMIHVKRCTPIPALLFTCISTLLMLVTSDMYTLINYVGFINYLFYGVTVAGQIVLRWKKPDIPRPIKINLLFPIIYLLFWAFLLVFSLWSEPVVCGIGLAIMLTGVPVYFLGVYWQHKPKCFSDFIELLTLVSQKMCVVVYPEVERGSGTEEANEDMEEQQQPMYQPTPTKDKDVAGQPQP
Regarding B1, the binding result is given as “binds”.
